Measured values reported in patent publication US10857167B2, “Use of oligosaccharide compositions to enhance weight gain” (Children's Hospital Medical Center, priority 2015, dated 2020).
The source gives many values for each of these; only a part stands here.

Test system: distal small bowel gene expression
Assay: RNA sequencing / transcriptional analysis of small bowel 56 days after ICR (2′-FL signature response)
Format: in vivo, mouse
From the text: Luminal small bowel contents were expressed into AllProtect Tissue Reagent (Qiagen Inc, CA). Bacterial DNA was extracted using the AllPrep DNA/RNA Mini Kit (Qiagen Inc, CA), according to kit instructions and prior to sequencing (described below). Small bowel tissue samples for RNA were placed into RNA Later (Life Technologies, NY). RNA extraction was accomplished following Qiagen RNeasy Plus Kit instruction (Qiagen Inc, CA). All nucleic acid samples were then stored at -80 Celsius until sequenced (described below). Transcriptional analysis was carried out on resected and harvested small bowel samples obtained from operated mice taken to 8 weeks. Murine RNA sequencing libraries were prepared from approximately 1.5 μg RNA using the TruSeq RNA Sample Preparation Kit (Illumina, Calif.) and sequenced using the HiSeq 2000 Sequencing System (Illumina, Calif.) with single-end 50 bp reads. Following removal of primers and barcodes, sequences were aligned to the mm10 genome using reference annotations from UCSC (Rosenbloom et al. (2015) Nucleic acids research 43: […]-681) (n=36,186 entities). Aligned reads were quantified and used to compute reads per kilobase per million mapped reads (RPKM); raw counts were then normalized using the DESeq algorithm and each harvested sample was baselined to its own resected sample. A filter was applied to the data, requiring at least three reads in all samples of at least one of the four experimental conditions (n=14,489 entities). The data discussed in this publication have been deposited in NCBI's Gene Expression Omnibus and are accessible through NCBI Gene Expression Omnibus (GEO) Series accession number GSE72590. Edgar et al. (2002) Nucleic acids research 30: 207-210. In order to characterize the impact of 2'-FL supplementation while accounting for the effect of ileoecal resection, a t-test was applied between resected and harvested samples within control and experimental animals. Significance was set at a p-value of ≤0.05 and a fold change of 3, which generated 2,576 differentially regulated entities across two comparisons. Gene set unions and intersections of the control and experimental gene sets were identified through Venn diagrams. From the master list, the gene list specific to animals supplemented with 2'-FL were removed in order to identify genes differentially regulated only by ICR (n=546 entities); this gene set characterizes the adaptive response. Further, the 2'-FL response (n=2,030 entities) was identified by removing the adaptive response signature described above from the master list, leaving only genes regulated by 2'-FL supplementation after ICR which were not found in the non-supplemented adaptive response. Heatmaps were generated using hierarchical clustering with the Pearson's Centered distance metric and the average linkage rule; both entities and samples were clustered. All genomic analyses described above were performed in Strand NGS (Strand Life Sciences, CA). Gene list functional enrichment was initially discovered using ToppFun, a member of the ToppGene Suite. Chen et al. (2009) Nucleic acids research 37: […]-311. No statistical correction was selected. Gene lists were further analyzed using ClueGO, a plugin for Cytoscape designed to decipher functionally grouped gene ontology and pathway annotation networks. Bindea et al. (2009) Bioinformatics 25: 1091-1093. At the time of data analysis, the annotation files were updated from sources to Jan. 1, 2015. “GO Term Fusion” was enabled to manage ontologic term redundancy and network specificity was set to medium. Results were restricted to pathways with p≤0.05 using Benjamini-Hochberg correction and Kappa scoring was set to 0.4. Biocyc annotations were assigned a rectangle, gene ontology biologic processes were assigned an ellipse, and […] annotations were assigned a diamond shape. No meaning was assigned to size or color. […]

C[C@@H]1O[C@@H](O[C@H]2[C@H](O[C@H]3[C@H](O)[C@@H](O)C(O)O[C@@H]3CO)O[C@H](CO)[C@H](O)[C@@H]2O)[C@@H](O)[C@H](O)[C@@H]1O (stereo partly shown) [2′-FL, 2′-fucosyllactose]
Fold Change (Pre- to Post-op) (Sdhd): 3.63
Fold Change (Pre- to Post-op) (Sec61b): 3.69
Fold Change (Pre- to Post-op) (Sec61g): 5.219
Fold Change (Pre- to Post-op) (Sectm1a): 3.311
Fold Change (Pre- to Post-op) (Sepw1): 3.354
Fold Change (Pre- to Post-op) (Serf2): 3.945
Fold Change (Pre- to Post-op) (Serhl): 3.091
Fold Change (Pre- to Post-op) (Serpina3a): 4.605
Fold Change (Pre- to Post-op) (Sgcg): 4.321
Fold Change (Pre- to Post-op) (Sh3bp4): −3.004
Fold Change (Pre- to Post-op) (Sirt3): 3.477
Fold Change (Pre- to Post-op) (Sla2): 3.355
Fold Change (Pre- to Post-op) (Slc6a3): 3.249
Fold Change (Pre- to Post-op) (Slc6a18): 7.382
Fold Change (Pre- to Post-op) (Slc35d2): 3.002
Fold Change (Pre- to Post-op) (Slc51b): 4.575
Fold Change (Pre- to Post-op) (Slfn2): 3.005
Fold Change (Pre- to Post-op) (Slirp): 3.621
Fold Change (Pre- to Post-op) (Slpi): 8.999
Fold Change (Pre- to Post-op) (Smdt1): 3.662
Fold Change (Pre- to Post-op) (Smim8): 3.276
Fold Change (Pre- to Post-op) (Smim15): 3.118
Fold Change (Pre- to Post-op) (Smim20): 3.769
Fold Change (Pre- to Post-op) (Smlr1): 3.977
Fold Change (Pre- to Post-op) (Snhg9): 5.506
Fold Change (Pre- to Post-op) (Snhg10): 3.516
Fold Change (Pre- to Post-op) (Snrnp25): 4.916
Fold Change (Pre- to Post-op) (Snrpd1): 3.053
Fold Change (Pre- to Post-op) (Snrpd2): 3.245
Fold Change (Pre- to Post-op) (Snrpe): 3.535
Fold Change (Pre- to Post-op) (Snrpg): 3.221
Fold Change (Pre- to Post-op) (Sod1): 3.013
Fold Change (Pre- to Post-op) (Spa17): 3.35
Fold Change (Pre- to Post-op) (Spdya): 3.854
Fold Change (Pre- to Post-op) (Spp1): 6.685
Fold Change (Pre- to Post-op) (Sprr1a): 5.778
Fold Change (Pre- to Post-op) (Spryd7): 3.948
Fold Change (Pre- to Post-op) (Sptssa): 4.616
Fold Change (Pre- to Post-op) (Ssna1): 4.034
Fold Change (Pre- to Post-op) (Ssr4): 3.918
Fold Change (Pre- to Post-op) (Stk16): 3.628
Fold Change (Pre- to Post-op) (Stmnd1): 5.003
Fold Change (Pre- to Post-op) (Stra13): 3.6
Fold Change (Pre- to Post-op) (Styxl1): 9.073
Fold Change (Pre- to Post-op) (Sub1): 3.541
Fold Change (Pre- to Post-op) (Sult1d1): 3.024
Fold Change (Pre- to Post-op) (Sumo1): 3.071
Fold Change (Pre- to Post-op) (Sun3): 3.257
Fold Change (Pre- to Post-op) (Syce3): 6.617
Fold Change (Pre- to Post-op) (Tatdn3): 3.064
Fold Change (Pre- to Post-op) (Tbca): 3.568
Fold Change (Pre- to Post-op) (Tceb1): 3.464
Fold Change (Pre- to Post-op) (Tcrg-V7): 3.042
Fold Change (Pre- to Post-op) (Tcta): 3.223
Fold Change (Pre- to Post-op) (Tead4): −3.006
Fold Change (Pre- to Post-op) (Tefm): 5.047
Fold Change (Pre- to Post-op) (Tex14): 9.152
Fold Change (Pre- to Post-op) (Tgds): 3.307
Fold Change (Pre- to Post-op) (Thoc7): 3.381
Fold Change (Pre- to Post-op) (Timm8b): 5.609
Fold Change (Pre- to Post-op) (Timm10): 3.177
Fold Change (Pre- to Post-op) (Timm10b): 3.175
Fold Change (Pre- to Post-op) (Timp1): 6.763
Fold Change (Pre- to Post-op) (Tm2d1): 3.704
Fold Change (Pre- to Post-op) (Tma7): 3.664
Fold Change (Pre- to Post-op) (Tmem14c): 3.542
Fold Change (Pre- to Post-op) (Tmem17): 4.923
Fold Change (Pre- to Post-op) (Tmem29): 3.596
Fold Change (Pre- to Post-op) (Tmem120a): 3.535
Fold Change (Pre- to Post-op) (Tmem126a): 3.547
Fold Change (Pre- to Post-op) (Tmem141): 3.785
Fold Change (Pre- to Post-op) (Tmem147): 3.294
Fold Change (Pre- to Post-op) (Tmem160): 3.219
Fold Change (Pre- to Post-op) (Tmem167): 3.465
Fold Change (Pre- to Post-op) (Tmem202): 18.02
Fold Change (Pre- to Post-op) (Tmem205): 3.889
Fold Change (Pre- to Post-op) (Tmem208): 4.011
Fold Change (Pre- to Post-op) (Tmem242): 3.513
Fold Change (Pre- to Post-op) (Tmem243): 3.368
Fold Change (Pre- to Post-op) (Tmem256): 5.43
Fold Change (Pre- to Post-op) (Tmem261): 3.229
Fold Change (Pre- to Post-op) (Tmigd1): 5.849
Fold Change (Pre- to Post-op) (Tmsb10): 3.554
Fold Change (Pre- to Post-op) (Tnfsf13): 5.041
Fold Change (Pre- to Post-op) (Tnni1): 7.38
Fold Change (Pre- to Post-op) (Tnnt1): 3.164
Fold Change (Pre- to Post-op) (Tomm5): 5.495
Fold Change (Pre- to Post-op) (Tomm7): 3.32
Fold Change (Pre- to Post-op) (Tomm20): 3.751
Fold Change (Pre- to Post-op) (Tomm40l): 3.767
Fold Change (Pre- to Post-op) (Tpsb2): 11.69
Fold Change (Pre- to Post-op) (Trappc2l): 3.461
Fold Change (Pre- to Post-op) (Triqk): 3.242
Fold Change (Pre- to Post-op) (Trub2): 3.313
Fold Change (Pre- to Post-op) (Tsc2): −3.008
Fold Change (Pre- to Post-op) (Tspo2): 3.759
Fold Change (Pre- to Post-op) (Tstd1): 5.012
Fold Change (Pre- to Post-op) (Tubal3): 3.046
Fold Change (Pre- to Post-op) (Tusc2): 4.502
Fold Change (Pre- to Post-op) (Tvp23a): 3.077
Fold Change (Pre- to Post-op) (Ubd): 8.971
Fold Change (Pre- to Post-op) (Ube2t): 3.289
Fold Change (Pre- to Post-op) (Ubxn6): 3.221
Fold Change (Pre- to Post-op) (Ugt2b35): 3.331
Fold Change (Pre- to Post-op) (Upb1): 7.463
Fold Change (Pre- to Post-op) (Uqcc2): 5.364
Fold Change (Pre- to Post-op) (Uqcr10): 4.682
Fold Change (Pre- to Post-op) (Uqcr11): 4.1
Fold Change (Pre- to Post-op) (Uqcrh): 4.939
Fold Change (Pre- to Post-op) (Uqcrq): 5.268
Fold Change (Pre- to Post-op) (Urm1): 3.576
Fold Change (Pre- to Post-op) (Usmg5): 6.564
Fold Change (Pre- to Post-op) (Uxt): 3.219
Fold Change (Pre- to Post-op) (Vamp8): 3.353
Fold Change (Pre- to Post-op) (Vars): −3.002
Fold Change (Pre- to Post-op) (Vcpkmt): 3.052
Fold Change (Pre- to Post-op) (Vmp1): 3.307
Fold Change (Pre- to Post-op) (Vps29): 3.971
Fold Change (Pre- to Post-op) (Vti1b): 3.377
Fold Change (Pre- to Post-op) (Vwa7): 5.626
Fold Change (Pre- to Post-op) (Wdpcp): 3.182
